PMC3774174 (Nature biotechnology, 2013)

Test system: kinase collection (kinase–HSP90 interactions)
Assay type: cell-based, human
Details: 5 μM, 1 hour

With `CN[C@@H]1C[C@H]2O[C@@](C)([C@@H]1OC)n1c3ccccc3c3c4c(c5c6ccccc6n2c5c31)C(=O)NC4` [staurosporine] the “kinase–HSP90 interactions significantly reduced” value was 45%.
